Results taken from paper PMC7677368.
Results are given in words; binding and its absence hold for the method and conditions named. In cells and extracts the contact can be indirect. Here binding means that the protein was enriched with, or labelled near, the bait; the list need not be complete. For some assays here: A no says only that the protein was not detected with the bait. For some assays here: Tags and fused reporters may be left off the sequences shown.

Sequences of proteins named here, by UniProt entry; tags and fusion partners are left off. A change or cut given only in a name is not applied to a line headed by its entry.
UniProt Q03919: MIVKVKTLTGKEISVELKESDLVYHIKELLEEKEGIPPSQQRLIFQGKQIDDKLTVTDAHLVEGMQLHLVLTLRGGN
UniProt Q8I3V5: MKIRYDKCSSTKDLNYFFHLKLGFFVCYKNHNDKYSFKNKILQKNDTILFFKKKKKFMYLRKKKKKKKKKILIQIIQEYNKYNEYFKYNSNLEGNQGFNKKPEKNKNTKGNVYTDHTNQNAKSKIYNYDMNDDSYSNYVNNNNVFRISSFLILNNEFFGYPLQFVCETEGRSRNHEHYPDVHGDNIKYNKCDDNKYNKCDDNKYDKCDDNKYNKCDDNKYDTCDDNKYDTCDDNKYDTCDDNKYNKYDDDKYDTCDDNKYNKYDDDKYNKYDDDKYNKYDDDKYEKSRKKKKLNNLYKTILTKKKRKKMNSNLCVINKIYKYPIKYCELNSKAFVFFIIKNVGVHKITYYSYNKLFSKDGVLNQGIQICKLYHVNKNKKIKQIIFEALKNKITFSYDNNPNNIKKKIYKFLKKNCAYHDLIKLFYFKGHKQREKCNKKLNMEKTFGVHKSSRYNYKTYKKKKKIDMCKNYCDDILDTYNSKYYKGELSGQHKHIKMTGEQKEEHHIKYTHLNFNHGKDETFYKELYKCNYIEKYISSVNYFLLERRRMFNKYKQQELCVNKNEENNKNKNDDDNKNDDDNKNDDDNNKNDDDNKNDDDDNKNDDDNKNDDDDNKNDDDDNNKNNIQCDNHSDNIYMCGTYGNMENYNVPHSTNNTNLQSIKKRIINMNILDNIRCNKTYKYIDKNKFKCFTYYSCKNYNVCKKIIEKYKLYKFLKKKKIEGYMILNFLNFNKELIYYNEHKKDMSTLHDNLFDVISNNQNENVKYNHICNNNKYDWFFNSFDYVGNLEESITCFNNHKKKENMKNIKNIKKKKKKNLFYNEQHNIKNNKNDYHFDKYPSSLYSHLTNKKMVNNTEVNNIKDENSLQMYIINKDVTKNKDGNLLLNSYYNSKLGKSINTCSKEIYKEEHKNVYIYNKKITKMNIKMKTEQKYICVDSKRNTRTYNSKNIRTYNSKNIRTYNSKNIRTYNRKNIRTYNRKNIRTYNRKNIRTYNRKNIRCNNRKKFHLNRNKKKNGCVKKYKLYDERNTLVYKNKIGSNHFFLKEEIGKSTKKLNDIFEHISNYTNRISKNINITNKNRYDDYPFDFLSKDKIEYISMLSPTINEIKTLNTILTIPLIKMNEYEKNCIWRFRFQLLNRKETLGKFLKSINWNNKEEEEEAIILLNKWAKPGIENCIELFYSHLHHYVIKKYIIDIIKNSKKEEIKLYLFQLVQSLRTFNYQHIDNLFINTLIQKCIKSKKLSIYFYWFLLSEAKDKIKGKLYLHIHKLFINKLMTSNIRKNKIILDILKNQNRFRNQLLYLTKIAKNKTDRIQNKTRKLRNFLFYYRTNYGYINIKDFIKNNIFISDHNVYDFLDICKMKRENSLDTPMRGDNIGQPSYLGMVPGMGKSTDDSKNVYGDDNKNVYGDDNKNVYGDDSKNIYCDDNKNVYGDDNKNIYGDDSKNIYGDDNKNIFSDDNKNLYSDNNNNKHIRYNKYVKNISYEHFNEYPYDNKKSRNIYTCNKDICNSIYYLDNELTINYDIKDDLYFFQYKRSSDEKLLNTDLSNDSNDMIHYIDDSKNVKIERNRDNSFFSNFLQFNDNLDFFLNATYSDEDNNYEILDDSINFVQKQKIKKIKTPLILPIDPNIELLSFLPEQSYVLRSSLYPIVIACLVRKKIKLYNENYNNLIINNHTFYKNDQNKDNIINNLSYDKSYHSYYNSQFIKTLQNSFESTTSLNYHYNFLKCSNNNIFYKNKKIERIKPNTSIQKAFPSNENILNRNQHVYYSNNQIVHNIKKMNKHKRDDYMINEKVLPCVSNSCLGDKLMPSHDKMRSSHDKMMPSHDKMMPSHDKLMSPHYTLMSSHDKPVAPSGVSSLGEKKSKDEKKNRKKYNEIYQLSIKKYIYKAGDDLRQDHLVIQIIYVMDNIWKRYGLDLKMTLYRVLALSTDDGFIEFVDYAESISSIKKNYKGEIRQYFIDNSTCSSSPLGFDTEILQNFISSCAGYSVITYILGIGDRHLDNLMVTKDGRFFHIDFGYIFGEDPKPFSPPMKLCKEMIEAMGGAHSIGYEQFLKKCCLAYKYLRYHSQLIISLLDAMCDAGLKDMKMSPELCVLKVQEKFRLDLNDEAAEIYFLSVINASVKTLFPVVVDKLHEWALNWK
UniProt Q7KQL3: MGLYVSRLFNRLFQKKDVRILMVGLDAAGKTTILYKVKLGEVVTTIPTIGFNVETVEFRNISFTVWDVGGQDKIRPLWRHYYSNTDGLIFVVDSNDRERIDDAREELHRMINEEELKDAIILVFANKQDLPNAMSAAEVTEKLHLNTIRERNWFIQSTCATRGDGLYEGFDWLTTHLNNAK

Key:
[1] = target: T1, recombinant SUMO-PfNEDD8 (PfNEDD8 as a C-terminal fusion of His-tagged SUMO) (P. falciparum) (UniProt Q8IEI4); assay: affinity purification with mass spectrometry; control of the in vitro neddylation reaction without ATP (parasite extract and SN8, 37 °C, 1 h), then Ni-NTA isolation and LC-MS/MS; only the target purified
T1 sequence: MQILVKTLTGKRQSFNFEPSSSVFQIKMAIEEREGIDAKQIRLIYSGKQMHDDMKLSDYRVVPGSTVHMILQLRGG

[2] = target: T1, recombinant SUMO-PfNEDD8 (PfNEDD8 as a C-terminal fusion of His-tagged SUMO) (P. falciparum); assay: affinity purification with mass spectrometry; in vitro neddylation reaction (100 μg soluble P. falciparum extract, 1 μg SN8, 5 mM ATP, 50 mM Tris-Cl, 0.5 mM DTT, MgCl2, pH 7.5, 37 °C, 1 h), then SN8 and what is with it isolated on Ni-NTA resin (washes with 150 mM NaCl, 10-50 mM imidazole), eluate by LC-MS/MS; only the target purified
[3] = target: T2, HA-tagged PfNEDD8 expressed episomally in P. falciparum (P. falciparum) (UniProt Q8IEI4); assay: affinity purification with mass spectrometry; lysates of HN8-expressing P. falciparum parasites (0.5% Triton X-100, 150 mM NaCl, pH 7.5) immunoprecipitated with rabbit anti-HA antibodies and protein A/G magnetic beads at 4 °C; wild type parasites as control; eluate by LC-MS/MS
T2 sequence: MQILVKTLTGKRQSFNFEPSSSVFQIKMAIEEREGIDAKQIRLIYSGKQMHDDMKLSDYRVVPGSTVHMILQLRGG

[4] = target: T3, N-terminal 2xHA-tagged PfNEDD8 expressed in S. cerevisiae rub1Δ (P. falciparum) (UniProt Q8IEI4); assay: affinity purification with mass spectrometry; lysates of rub1Δ[HA-PfN8] and rub1Δ[HA-rub1] S. cerevisiae (0.5% NP-40, 150 mM NaCl, pH 7.5) immunoprecipitated with mouse anti-HA antibody on protein A/G magnetic beads, overnight at 4 °C; wild type strain as control; eluate by LC-MS/MS
T3 sequence: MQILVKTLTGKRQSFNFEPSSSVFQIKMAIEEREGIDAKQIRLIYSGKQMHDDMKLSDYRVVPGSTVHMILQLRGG

[5] = target: N-terminal 2xHA-tagged S. cerevisiae Rub1 expressed in S. cerevisiae rub1Δ (S. cerevisiae) (UniProt Q03919); assay: as above

Question: For “P. falciparum phosphatidylinositol 3-kinase (from UniProt Q8I3V5 1-2133)”, which binding [1] is on record?
Answer: no binding (only without ATP)

Question: And the binding [2]?
Answer: binds

Question: Which results are given for “P. falciparum ER lumen protein retaining receptor 1”?
Answer: binding [1]: no binding (only without ATP); binding [2]: binds

Question: Which binding [3] does the source give for “P. falciparum ADP-ribosylation factor 1 (from UniProt Q7KQL3 1-181)” here?
Answer: binds

B1: P. falciparum cullin-1 (protein, UniProt Q8IAU5 1-829)
chain: MDIVNINFESGWKIIREEAIEKIEKYLENEHIEKNKNLFSATEYTRLYTVVYNMCAKKNPFCYSKEVYRKYGESLSMYTIDKIKPLLKNSDELNKTKILIDAWFKYSFYTKWMNKFLRYLDRYYVEYNSSLCLSAYTKNIFKITLFNELREDIKNIIYEIYNNLRLQEEIDQKELFCNIVELYKELDNESNEKMYEHDIEKKIVENVNNFYKKKAEEWINDYPFDDYIISIENAIEKEYEKNKSLNLNDDTCEKVTNIIVKILIYEKLNTLIDNKNNIFHLLKNNNLSSLRRTYILFSYFPEALTGLKKIIGEYIKMEGNELKDKYVQLSRKMHMSKNVNNMQNVDDNTMEDNDNYIDISNDDNNNNDNSNNNNIMNTEQNDDIILCDYIEQLIKLHNHYDNIFKLSFFNISNKNIDPNFNECLKDYFESFVEHEDEYFSTVKLLVIYTDNILKRDLNNENSVDEKQKIHMNKEEKNDEQTKFLMKKMSEIVEIFNYTSNKETFFEYYRVYLANRLINNIYISLHIEKKFIEQLYYLCGSQYTSKLGGMIQDLINNTNMNNKFYDHMKNVFNNNEIVNNNNNNSIYNDHFSNYHNVKDFFSVKILNKGYWPTLEKIHIQLNEPFNKYIQVFEEYYKSENKNRKLEWIYELSEVILHYEFNNILYNLYCNVVNAQILLLFNKYKYINYDIVKNELQIDLKSFTDHMYTSFYHFKLITSNDQIPDWTNSNFYINNNFSYPNKNVYIKKTTALLSKEHEKTKEDRTMAIEAAIVRVMKMHKKLFYDQIFDYVKKSLSSFSPTNQVIEKKIDLLVEREYIQKEENSQIYVYIP
Question: Which results are given for B1?
Answer: binding [1]: no binding (only without ATP); binding [3]: binds; binding [2]: binds

B2: P. falciparum cullin-like protein (renamed cullin-2) (protein, UniProt C6KTD3 1-1129)
chain: MDPTAVNNYPVFYVKNKDFLNVDNEHIRCSLKRFEEYIHECFSILPYNKIKIQNEEKISVQHFCDVLVFNQCEQIICAIIEKECNEKTKQFFEEVEIRIKNEEFKNGEEEFLKLFVSIWNNFSLVLIHISDILQSFIAYTKNMCCNFFDPTQIFNYLWKKYINQYVIIKNMFISSICNYLTYDKIYCETYFYEYVCVNICNKYATKRYNLKKNQINYIERLQNIQKNYQVNNEATNKQTNKINKKDCINKKEIPTENITYKTKEEEHIQRGDHNNNNNYNNSYDNNNYSDDIYNSNPYLDDTNHEYKNTQKKKKINDKVLSLSIKISDILNLYDDFERIYKNETYTFYKEKIEKYKKDMETLGYEECNFDFPIIVENYLCHEQIRSRKFLKEHTEITILNMLKDLLLVKNRDVLFKDSYIKYCIIKEKYDPLRSVYLYSLNLDDLENFSNIFFNVVDNIGTELVNDVINKRNNSSLLNNAIIKLINFKLNVDRIIIMSFRYSSYFMKKWREVFEHFINKGIQAETYMPIILSMYLNNLLTMYNACLRKLKKYYILNKKIKNNRSLFNNLLFEVDWNNYCTQPISETIDFYDISTDSDNMLGIKKYLRKKRKNTKKDLINFEHEEEYVKRKHMDNNIHNNDHNDNIYFNNNLYFNNDYHNNLYYDSLNINKRSDEKIFFHLLKIDKLFKKYHIIGKYIMNMITVILSLFRYVSDKEKFEKYYRTYMCKRLINDSSFNIILDVKVFKTLKKECGAQFTKKIEIILKDMKFTSKTLMKFYKELPNNVNHFLKRKKYAVNIIFNESWEYVNTENNVIYPPMIKMCNEAFFLFYQKYNKSKNIKFLPLLGLCTLRVHFKNFKEEGSFDLGKRDDNNDEKRDDNNDEKRDHNNIEKRDDNNIEKRDDNNIEKRDDNNIEKRDDNNDEKRDENNDKKRDENNNYSDDNDDDLNNEDSSSTYNKKGKKKIYITVTILQALVLLLFNKKNEYHINEIKELTGISTENIIRYLKTIYTIGETHILIYDKANEILKLNFSFRSKKKFLIVNYNDVLYKDDMGPTTSLLNEDNEIEDKTLHIDAAIVKFLKTNGKSSERKICSFIKDKMDISSNEQIKNRISSLLSREFIFFKNNNYHYEL
Question: Which results are given for B2?
Answer: binding [1]: no binding (only without ATP); binding [3]: binds; binding [2]: binds

B3: S. cerevisiae SCF-associated factor 1 (protein, UniProt P38352 1-637)
chain: MSEVESREKEPDAGLSPDIVQATLPFLSSDDIKNLSQTNKYYNTLLDFDHSKILWHELFHKAFGTLKTNDEPFQGRNSAEFKTCTETILREAFPTLSWQEVYQLRAYDAKFYSWGYLKHGRLGYTASSNNELVATSLNGPSPRFKYGVNTPTEVPWFNSRTTSRTSNFTPSEDPLSAIKKDGDEIIAQVSSGGFSFQILTESGNLYSSGSTFSGGLKGPGPSGSQHDYNPFREMIHNMERSYPRITSRSNGSTVNTTGTFSGRRMSGSHPSTAYEPGNATTAQHITIDSGGAPAASPGGSHSGVPRTTMPSMGPHENIYSQIEMLERSANKAVPGNNHIRRMFARNSFPLYSGRDENLGSFNDIQFVAVSSGRSHFLAMDTDNNIYSWDSTESDQGVKIEFANLPSRATNPILKIASGWNFNCCYIYKVGLVAWKERDAIQKGESFAFAKYEIVPNTNDVNGDSRIVDFACLQDNCVFFINNNGDKLWKYHNGLNQIVDLNIVGKLCKINACFASLVLFTDTHCYTLKVTNGDVDKDSLTELDINENVISVASGDYHTVALTERGHLYSWGIESQDCGCLGLGPSEKIVNELHIGNWEGQRNIRVVKPTKIELPEDYICVSVTAGGWQTGALIIKKH
Question: Which binding [4] does the source give for B3 here?
Answer: binds

Question: And the binding [5]?
Answer: binds

B4: P. falciparum suppressor of kinetochore protein 1 (protein, UniProt Q8ID38 1-162)
chain: MKNDKIKLVSFEGDEFIVDKNTASMSTVIMNILEVMTAEEDTIPLPNIKTPILKKIIEYMEYHINNPADEIPKPLITSNLQDVVSSWDFDFVNTDKETLYELIEASNYLDIKPLLDLTCGKIASMMKDKTTEEIRAEFDIVNDFTREEEKQIREENRWCGDI
Question: Which binding [1] does the source give for B4 here?
Answer: no binding (only without ATP)

Question: And the binding [2]?
Answer: binds

B5: P. falciparum coatomer subunit delta (protein, UniProt Q8II16 1-487)
chain: MTVLSAVISTKSKILVSRQFRNISKCDLDSLTIPFHNLIERERSDHTYIETDKVRYVYQPLDNIYIFLITNINSNIIEDLEIIKVLSQIIQDICQGNINESTILKKCFTIIFYIDELIKNGVREIVNSNQIKTYIEMESHEEKLQTIIRENKEKEEKERRKFIASKLEKNRQKQSKVSSNSFLSNDLINNLEYTNNIDMYKTEEQDIIDESFNTYKGMQLTSNKKENIRILNVVEHKVDTKPHINVNSIFDKPINIIITENIICTLSSEGTLCDLDIQGTFNLQINNHNYSKVIVELDNEYSEKAKIHPILDKNKYNSNILELKDKSKNFRINTIYPLLKWKINHINDSYIPLNISCWPCEDNESTLLSLEIENKRNNNDELIYDLNVNLMCPSAHKPQIISNDKGIIEHDGVLLAWKVDELKNNQSCQIEMSIQANPESVFPFSVEAKSNMLAHKLNVLKVYDEDTKKDIEYEIKKNITYLFTINK
Question: With B5 as the molecule, how does the binding [1] read?
Answer: no binding (only without ATP)

Question: And the binding [2]?
Answer: binds
